According to patent publication US20030158113A1 (University of Washington, published 2003):

Molecular target: T1, protein A-colloidal gold complex (UniProt P38507 37-477, colloidal gold conjugate)
T1 construct: Detection reagent, used alone as a control; also called protein A-gold complex
Assay: post-embedding immunogold labeling of BASMC culture sections, TEM

B1: Rat osteopontin purified from the conditioned medium of rat neonatal smooth muscle cell cultures (other, UniProt P08721 17-317, looked up)
chain: LPVKVAEFGSSEEKAHYSKHSDAVATWLKPDPSQKQNLLAPQNSVSSEETDDFKQETLPSNSNESHDHMDDDDDDDDDGDHAESEDSVNSDESDESHHSDESDESFTASTQADVLTPIAPTVDVPDGRGDSLAYGLRSKSRSFPVSDEQYPDATDEDLTSRMKSQESDEAIKVIPVAQRLSVPSDQDSNGKTSHESSQLDEPSVETHSLEQSKEYKQRASHESTEQSDAIDSAEKPDAIDSAERSDAIDSQASSKASLEHQSHEFHSHEDKLVLDPKSKEDDRYLKFRISHELESSSSEVN
notes: mature; Native secreted, post-translationally modified protein; also called OPN
binding result: no binding
